PubChem BioAssay AID445 (National Center for Advancing Translational Sciences (NCATS), 2006)
The list shows a part of the results. Further columns of the screen follow, without active or inactive calls. Most of these compounds were active or inconclusive in the main read-out, so they are no random draw. The note in brackets gives the kind of curve behind each potency; many fits are weak.

Test: IkB Signaling
Conditions: ABC-DLBCL IkBa-CBG/CBR dual luciferase ratio (green luciferase fused to IkBa over red control in OCI-Ly3 lymphoma cells), 4 h
Method in brief: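 Luminescence ratio of IκBα-fused green versus native red beetle luciferase in OCI-Ly3 cells, 4 h post-doxycycline with compound; red signal alone, scaled from basal (0%) to zero light (-100%), flagged nonspecific or cytotoxic effects.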

[1] = measured here: IkB-luc green channel
[2] = measured here: control luc red channel
[3] = measured here: control luc red channel unless noted

For `CC(C)(C)c1ccc(C(=O)Nc2nnc3n2CCS3)cc1`, the AC50 [1] was 31.6 µM [rising, single point] and the AC50 [2] was 1.26 µM [rising, full curve].
With `CC(=O)Nc1ccc(OC/C=C(\C)Cl)cc1` the AC50 [3] was 0.126 µM [rising, full curve, poor fit].
In the case of `CCOC(=O)Cn1c(=O)oc2cc(S(=O)(=O)Nc3ccccc3F)ccc21`, the AC50 [3] is reported as 15.8 µM [falling, single point].
For `CCc1nc2nc(C)cc(Nc3ccc(F)c(Cl)c3)n2n1`, the AC50 [3] was 1.26 µM [rising, full curve].
In the case of `O=C1CC(c2ccc(Br)cc2)c2c(ccc3ccccc23)N1` (stereo not given), the AC50 [3] is reported as 15.8 µM [falling, partial curve].
In the case of `COc1ccc(C(=O)N(Cc2nc(-c3ccc(C)cc3)no2)C2CCCCC2)cc1OC`, the AC50 [3] is reported as 15.8 µM [falling, partial curve].
For `Cc1cccc(C(=O)Nc2ccccc2OCc2cc(=O)n3cc(C)ccc3n2)c1`, the AC50 [3] was 12.6 µM [falling, partial curve].
In the case of `CC(=O)N1CCCc2cc(S(=O)(=O)N3CCCC(C(=O)Nc4ccc(C)c(F)c4)C3)ccc21` (stereo not given), the AC50 [3] is reported as 12.6 µM [falling, partial curve].
For `CC(=O)Nc1ccc2nc(SCCOc3ccccc3Cl)sc2c1`, the AC50 [3] was 20 µM [falling, partial curve].
With `CCOC(=O)c1c(C)[nH]c(C)c1S(=O)(=O)N(C)CC(=O)Nc1ccc(C)c(F)c1` the AC50 [3] was 3.16 µM [falling, full curve, poor fit].
With `O=C(c1ccc(-c2ccccc2)cc1)N1CCN(C(=O)c2ccco2)CC1` the AC50 [3] was 25.1 µM [falling, partial curve].
For `Cc1cc(C)c(NC(=O)C2CCCN(C(=O)c3cnn(-c4ccccc4)c3-n3cccc3)C2)c(C)c1` (stereo not given), the AC50 [3] was 12.6 µM [falling, partial curve].
For `CCc1ccc(S(=O)(=O)c2cn(Cc3ccc(OC)cc3)c3cc(OC)c(OC)cc3c2=O)cc1`, the AC50 [3] was 12.6 µM [falling, single point].
For `COc1ccc(NC(=O)CCc2c(C)nc3cc(-c4cccc(F)c4)nn3c2C)cc1Cl`, the AC50 [3] was 2 µM [falling, partial curve].
For `CC(C)OCCCn1c(SCc2ccccc2Cl)nc2c(sc3ccccc32)c1=O`, the AC50 [3] was 3.16 µM [rising, partial curve].
In the case of `Fc1cccc(Cl)c1CSc1nnc(COc2cccc3cccnc23)o1`, the AC50 [3] is reported as 39.8 µM [falling, single point] [measured here: IkB-luc green channel].
For `Cn1cc(-c2nc3ccccc3[nH]2)c2ccccc21`, the AC50 [3] was 15.8 µM [falling, partial curve].
For `CCOc1ccc(NS(=O)(=O)c2ccc(SC)cc2)cc1`, the AC50 [3] was 7.94 µM [falling, partial curve].
With `COc1ccc(CCNC(=O)c2cc(=O)[nH]c3ccc(S(=O)(=O)N4CCCCC4)cc23)cc1OC` the AC50 [3] was 2 µM [rising, full curve, poor fit].
With `CCOc1nc(C)ccc1-c1noc(-c2ccncc2)n1` the AC50 [3] was 2 µM [rising, full curve, poor fit].
With `CCN(c1cc(C)cc(C)c1)S(=O)(=O)c1nnc(NC(=O)c2ccccc2C)s1` the AC50 [3] was 39.8 µM [falling, single point].
In the case of `CCn1c(C)nc2cc(C(=O)OC(C(F)(F)C(F)F)C(F)(F)C(F)F)ccc21`, the AC50 [3] is reported as 39.8 µM [falling, single point].
In the case of `CC(=O)Nc1ccc(S(=O)(=O)Nc2nc3ccccc3nc2Sc2nncn2C)cc1`, the AC50 [3] is reported as 0.398 µM [falling, full curve].
In the case of `CCc1cccc(C)c1NC(=O)c1cc(S(=O)(=O)N2CCN(c3ccccc3)CC2)ccc1F`, the AC50 [3] is reported as 39.8 µM [falling, partial curve].
With `Cc1cccc(CCNC(=O)CCc2c(C)nc3c(c(C)nn3-c3ccccc3)c2C)c1` the AC50 [3] was 7.94 µM [falling, full curve].
For `O=C1CCN(Cc2nnnn2CC2CCCO2)c2ccccc2N1` (stereo not given), the AC50 [3] was 31.6 µM [falling, single point].
For `CN(C)c1ccc(C(=O)NCc2ccc3c(c2)CCN3C(=O)c2ccc(Cl)cc2)cc1`, the AC50 [3] was 3.98 µM [falling, partial curve].
With `CN1C(=O)c2ccccc2Sc2ccc(NC(=O)N3CCN(c4cccc(Cl)c4)CC3)cc21` the AC50 [3] was 12.6 µM [falling, partial curve].
In the case of `Clc1ccc(CNc2ncnc3onc(-c4ccc(Cl)cc4)c23)cc1`, the AC50 [3] is reported as 31.6 µM [falling, single point].
With `COc1ccc(C(=O)NCc2ccc3c(c2)CCN3C(=O)c2ccc(Cl)cc2)c(OC)c1` the AC50 [3] was 31.6 µM [falling, partial curve].
In the case of `COc1cc(OC)cc(C(=O)Nc2cccc(-c3cn4ccsc4n3)c2)c1`, the AC50 [3] is reported as 39.8 µM [falling, single point].
With `O=C(COc1ccccc1Cl)Nc1ccc2nc(SCC(=O)N3CCOCC3)sc2c1` the AC50 [3] was 0.631 µM [falling, full curve].
In the case of `CCOc1cccc2cc(C(=O)Nc3cc(C)on3)c(=O)oc12`, the AC50 [3] is reported as 1 µM [falling, full curve].
With `Cc1ccccc1Cn1cc(S(=O)(=O)c2ccc(F)cc2)c(=O)c2cc3c(cc21)OCO3` the AC50 [3] was 20 µM [falling, partial curve].
In the case of `CCc1nccn1S(=O)(=O)c1cc(Br)ccc1Br`, the AC50 [3] is reported as 1 µM [rising, full curve].
In the case of `O=C(c1ccccc1-c1nc(-c2ccc(Cl)cc2)no1)N1CCCC1`, the AC50 [3] is reported as 39.8 µM [falling, single point].
In the case of `COC(=O)c1sccc1S(=O)(=O)N(CC(=O)Nc1cc(F)ccc1F)c1ccc(C)c(C)c1`, the AC50 [3] is reported as 2.51 µM [falling, full curve].
In the case of `CCN(CC)c1nn2c(=O)c(C(=O)NCc3ccccc3Br)cnc2s1`, the AC50 [3] is reported as 31.6 µM [falling, partial curve].
In the case of `CCOc1ccc(NC(=O)N2CCN(C(=O)c3nsc4ccccc34)CC2)cc1`, the AC50 [3] is reported as 0.126 µM [falling, partial curve].
For `Cc1cccc(NC(=O)c2ccc(Cn3nc(N4CCN(c5ccccc5)CC4)ccc3=O)o2)c1C`, the AC50 [3] was 31.6 µM [falling, single point].
In the case of `O=S(=O)(Nc1cccc(-c2ccc(N3CCOCC3)nn2)c1)c1ccc(F)c(C(F)(F)F)c1`, the AC50 [3] is reported as 25.1 µM [falling, single point].
With `COc1ccc(-c2cc(C(F)(F)F)nc(SCC(=O)N(C)Cc3ccccc3)n2)cc1` the AC50 [3] was 3.16 µM [falling, partial curve].
In the case of `COc1ccc(-c2nn(C)c(=O)c3ccccc23)cc1NC(=O)Cn1nc(C)c2ccccc2c1=O`, the AC50 [3] is reported as 10 µM [falling, partial curve].
With `COc1ccc(OC)c(CNC(=O)NCc2noc3ccc(C)cc23)c1` the AC50 [3] was 0.01 µM [falling, full curve, poor fit].
With `O=C(CSc1cn(CC(=O)N2CCCCC2)c2ccccc12)NCc1ccccc1Cl` the AC50 [3] was 39.8 µM [falling, single point].
With `COc1ccccc1OCC(=O)c1[nH]c(C)c(C(C)=O)c1C` the AC50 [3] was 31.6 µM [falling, partial curve].
In the case of `O=C(CN1C(=O)c2cccnc2Sc2ccccc21)Nc1cc(F)ccc1F`, the AC50 [3] is reported as 20 µM [falling, partial curve].
For `COc1ccccc1N(CC(=O)Nc1ccccc1C(F)(F)F)S(=O)(=O)c1ccc(C)cc1`, the AC50 [3] was 25.1 µM [falling, partial curve].
In the case of `Cc1ccc(C)c(N2CCN(C(=O)Cn3nc(C)c4sc5ccccc5c4c3=O)CC2)c1`, the AC50 [3] is reported as 10 µM [falling, partial curve].
For `CCC(O)c1nc2ccccc2n1Cc1cc(C)ccc1C` (stereo not given), the AC50 [3] was 39.8 µM [falling, single point].
In the case of `CC(C)Nc1ncnc2c1cnn2-c1ccccc1`, the AC50 [3] is reported as 12.6 µM [falling, partial curve].
In the case of `CCCOc1ccccc1-c1nc(SCCC(=O)O)n[nH]1`, the AC50 [3] is reported as 25.1 µM [falling, partial curve].
With `CCN(CC)c1ccc(C2C(C(N)=O)=C(C)Nc3nc(SCc4ccccc4Cl)nn32)cc1` (stereo not given) the AC50 [3] was 0.251 µM [rising, full curve, poor fit].
In the case of `Cc1ccc(C(=O)Nc2nc3ccccc3n2CCN2CCCC2)cc1`, the AC50 [1] is reported as 31.6 µM [rising, partial curve] and the AC50 [2] is reported as 3.98 µM [falling, partial curve].
With `COc1ccc(CNC(=O)C2(c3cccs3)CCOCC2)cc1` the AC50 [3] was 31.6 µM [falling, single point].
With `CCNc1c2c3c(cccc3n(C)c1=O)C(=O)c1ccccc1-2` the AC50 [3] was 15.8 µM [falling, partial curve].
For `CCN(CC)S(=O)(=O)c1cccc(C(=O)Nc2ccccc2C(=O)Nc2ccc(OC)cc2)c1`, the AC50 [3] was 10 µM [falling, partial curve].
With `Cc1nn(CC(O)Cn2c3c(c4ccccc42)CCN(C)C3=O)c(C)c1Br` (stereo not given) the AC50 [3] was 12.6 µM [falling, partial curve].
In the case of `CCOc1ccc(NC(=O)c2c(NCc3cccs3)sc3c2CCC(C)C3)cc1` (stereo not given), the AC50 [3] is reported as 39.8 µM [falling, single point].
For `CCCCN(C)CCCNC(=O)c1cn(CC)c2ccc(S(=O)(=O)N3CCc4ccccc4C3)cc2c1=O`, the AC50 [3] was 6.31 µM [falling, full curve].
For `COc1ccccc1CNC(=O)c1cc(S(=O)(=O)N2CCCC(C)C2)cn1C` (stereo not given), the AC50 [3] was 10 µM [falling, partial curve, poor fit].
In the case of `CCc1ccc(NC(=O)CC2C(=O)N(c3ccc(F)cc3)C(=O)N2Cc2ccc(F)cc2)cc1` (stereo not given), the AC50 [3] is reported as 20 µM [falling, partial curve].
In the case of `Cc1ccc(-n2nc(C)c3c(C(F)(F)F)cc(-c4cccnc4)nc32)cc1C`, the AC50 [3] is reported as 39.8 µM [falling, single point].
